Among the data in paper PMC6111810 are binding values, retold here.

Sequences of proteins named here, by UniProt entry; tags and fusion partners are left off. A change or cut given only in a name is not applied to a line headed by its entry.
UniProt Q99755: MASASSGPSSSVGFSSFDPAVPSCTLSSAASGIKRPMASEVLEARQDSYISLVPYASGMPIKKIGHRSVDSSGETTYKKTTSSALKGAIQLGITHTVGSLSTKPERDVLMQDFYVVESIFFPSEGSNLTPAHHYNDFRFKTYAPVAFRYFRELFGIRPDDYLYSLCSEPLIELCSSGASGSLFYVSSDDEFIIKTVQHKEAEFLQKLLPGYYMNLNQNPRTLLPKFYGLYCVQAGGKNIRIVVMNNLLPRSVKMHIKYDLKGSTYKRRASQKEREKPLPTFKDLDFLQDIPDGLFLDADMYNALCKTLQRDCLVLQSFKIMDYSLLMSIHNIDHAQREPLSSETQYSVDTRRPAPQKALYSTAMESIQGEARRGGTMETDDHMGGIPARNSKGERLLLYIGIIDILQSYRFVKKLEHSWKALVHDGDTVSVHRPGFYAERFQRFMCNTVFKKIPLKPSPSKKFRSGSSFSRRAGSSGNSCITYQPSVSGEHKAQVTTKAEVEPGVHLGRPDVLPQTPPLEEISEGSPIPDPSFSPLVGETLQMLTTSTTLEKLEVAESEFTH
UniProt P46934: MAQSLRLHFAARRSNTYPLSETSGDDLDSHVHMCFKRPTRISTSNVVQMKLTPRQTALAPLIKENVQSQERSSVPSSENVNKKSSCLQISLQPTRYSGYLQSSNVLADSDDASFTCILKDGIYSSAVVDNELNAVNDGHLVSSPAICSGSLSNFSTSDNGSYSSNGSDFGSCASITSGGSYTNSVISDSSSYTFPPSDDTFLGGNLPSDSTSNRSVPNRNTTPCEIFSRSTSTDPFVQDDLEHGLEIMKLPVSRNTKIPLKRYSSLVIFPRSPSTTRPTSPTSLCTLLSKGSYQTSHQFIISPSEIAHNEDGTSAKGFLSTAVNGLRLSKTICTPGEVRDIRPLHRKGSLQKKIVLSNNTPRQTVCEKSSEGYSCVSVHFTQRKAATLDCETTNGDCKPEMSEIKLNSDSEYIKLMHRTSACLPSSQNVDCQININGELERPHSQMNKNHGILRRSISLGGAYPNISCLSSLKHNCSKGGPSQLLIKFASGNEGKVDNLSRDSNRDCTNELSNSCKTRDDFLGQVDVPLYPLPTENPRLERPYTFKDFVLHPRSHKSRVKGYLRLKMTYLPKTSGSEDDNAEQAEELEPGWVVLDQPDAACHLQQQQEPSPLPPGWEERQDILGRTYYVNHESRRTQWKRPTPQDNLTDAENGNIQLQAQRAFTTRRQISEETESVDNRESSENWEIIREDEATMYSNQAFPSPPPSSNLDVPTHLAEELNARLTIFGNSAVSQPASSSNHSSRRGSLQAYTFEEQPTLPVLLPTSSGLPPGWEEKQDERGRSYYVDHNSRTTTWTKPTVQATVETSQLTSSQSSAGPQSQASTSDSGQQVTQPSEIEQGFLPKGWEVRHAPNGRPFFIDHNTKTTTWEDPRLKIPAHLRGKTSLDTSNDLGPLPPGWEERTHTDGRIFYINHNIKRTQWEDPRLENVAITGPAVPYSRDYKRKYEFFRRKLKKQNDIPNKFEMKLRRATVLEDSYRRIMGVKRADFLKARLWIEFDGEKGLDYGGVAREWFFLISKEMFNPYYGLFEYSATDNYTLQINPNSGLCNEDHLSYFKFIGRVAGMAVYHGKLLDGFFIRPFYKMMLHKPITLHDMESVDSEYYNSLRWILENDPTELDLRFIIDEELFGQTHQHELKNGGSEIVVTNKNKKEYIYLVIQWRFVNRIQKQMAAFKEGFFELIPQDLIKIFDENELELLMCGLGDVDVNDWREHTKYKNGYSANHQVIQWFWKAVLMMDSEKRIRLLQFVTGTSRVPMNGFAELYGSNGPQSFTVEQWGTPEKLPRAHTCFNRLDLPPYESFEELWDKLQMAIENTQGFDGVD

Test [1] has as its target endogenous PIP5Kα (human (endogenous in HEK293)) (UniProt Q99755). The test can be described thus: co-IP; endogenous proteins, intact HEK293 cells; lysate (~1.5 mg) with 5 μg anti‐PIP5Kα or anti‐NEDD4 antibody 4 hours at 4°C, protein G agarose 2 hours; control IgG.
The target of test [2] is endogenous NEDD4 (human (endogenous in HEK293)) (UniProt P46934). Described as above.

Results are given in words; binding and its absence hold for the method and conditions named. Binding seen in cells or lysates may run through a third protein. A result given as binding can be weak or reduced; the word gives no strength.

Regarding “endogenous NEDD4 (from UniProt P46934-4) (enzyme)”, the binding result in test [1] is “binds”.
Consider “endogenous PIP5Kα (from UniProt Q99755 1-562)”, for which, in test [2], the binding entry was “binds”.
